Consider two molecules from US8846868B2, “Anti-AREG/HB-EGF antibodies and treatment” (Fusion Antibodies Limited, priority 2008, dated 2014).

The test concerns the target recombinant HBEGF (human). In words: ELISA, antibody on coated recombinant protein (HBEGF, AREGfg5, rAREG), FIG. 10.

Results are given in words; binding and its absence hold for the method and conditions named. Binding calls can cover weak binding; strength is not graded here.

B1: 8d7 1f6 2b3 antibody (antibody, V domains shown)
VH: EVQLQQSGAELVRPGALVKLSCKASGFNIKDSYIHWVNQRPEQGLEWIGWIDPENGNTIYDPKFQGKASITADTSSNTAYLQLSSLTSEDTAVYYCVSASYRYGFSYWGQGTLVTVSA
VL: DIVMTQAAPSVPVTPGESVSISCRSNKSLLHTNGNTYLYWFLQRPGQSPQLLIYRMSNLASGVPDRFSGSGSGTAFTLRISRVEAEDVGVYYCMQHLEYPYTFGGGTKLEIKR
For B1, the binding result is “binds”.

B2: 8d7 1f6 2f7 antibody (antibody, V domains shown)
VH: B1 VH
VL: B1 VL
Turning to B2, the binding entry is “binds”.
